Six substances from patent publication US20220372111A1 can be followed below.

Sequences of proteins named here, by UniProt entry; tags and fusion partners are left off. Residues count along the entry.
UniProt P08246, residues 30-247: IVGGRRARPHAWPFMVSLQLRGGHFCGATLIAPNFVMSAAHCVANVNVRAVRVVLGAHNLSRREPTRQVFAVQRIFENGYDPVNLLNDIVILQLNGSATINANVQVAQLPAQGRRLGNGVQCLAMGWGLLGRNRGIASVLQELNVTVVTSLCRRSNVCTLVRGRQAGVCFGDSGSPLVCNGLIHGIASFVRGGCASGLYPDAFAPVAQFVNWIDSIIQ

Results are given in words; binding and its absence hold for the method and conditions named. Some binding calls cover weakened binding; strength is not graded here.

Experiment [1] addresses neutrophil elastase (purified HNE) (human) (UniProt P08246). The experiment can be described thus: inhibition of HNE activity, ratio [MDI-1005]/[HNE] 0 to 20, buffer and DNA NETs [panel MDI-1005].
The target is the same in experiment [2]. The experiment in a line: inhibition of HNE activity, ratio [MDI-1006]/[HNE] 0 to 20, buffer and DNA NETs [panel MDI-1006].
Experiment [3] has the same target. The experiment can be described thus: inhibition of HNE activity, ratio [MDI-1009]/[HNE] 0 to 20, buffer and DNA NETs [panel MDI-1009].
Experiment [4] has the same target. The experiment can be described thus: inhibition of HNE activity, ratio [MDI-1007]/[HNE] 0 to 20, buffer and DNA NETs [panel MDI-1007].
For experiment [5] the target is unchanged. The experiment in a line: inhibition of HNE activity, ratio [MDI-1008]/[HNE] 0 to 20, buffer and DNA NETs [panel MDI-1008].
Experiment [6] has the same target. The experiment can be described thus: inhibition of HNE activity, ratio [MDI-1010]/[HNE] 0 to 20, buffer and DNA NETs [panel MDI-1010].

As for MDI-1005 (from UniProt P05121 24-402), the binding result in experiment [1] was “binds”. Take MDI-1006 (from UniProt P05121 24-402): in experiment [2], the binding result is recorded as “binds”. Turning to MDI-1009 (from UniProt P05121 24-402), the binding result in experiment [3] was “binds”.

Consider MDI-1007 (from UniProt P05121 24-402), for which the binding result in experiment [4] is “binds”. On to MDI-1008 (from UniProt P05121 24-402), for which the binding result in experiment [5] was “binds”. As to MDI-1010 (from UniProt P05121 24-402), the binding entry in experiment [6] was “binds”.
